In paper PMC8960810:
Results are given in words; binding and its absence hold for the method and conditions named. In cells and extracts the contact can be indirect. Some entries that bind do so weakly or less than the wild type.

Target: T1, SLC7A11 (mouse (endogenous in liver tissue)) (UniProt Q9WTR6)
T1 sequence: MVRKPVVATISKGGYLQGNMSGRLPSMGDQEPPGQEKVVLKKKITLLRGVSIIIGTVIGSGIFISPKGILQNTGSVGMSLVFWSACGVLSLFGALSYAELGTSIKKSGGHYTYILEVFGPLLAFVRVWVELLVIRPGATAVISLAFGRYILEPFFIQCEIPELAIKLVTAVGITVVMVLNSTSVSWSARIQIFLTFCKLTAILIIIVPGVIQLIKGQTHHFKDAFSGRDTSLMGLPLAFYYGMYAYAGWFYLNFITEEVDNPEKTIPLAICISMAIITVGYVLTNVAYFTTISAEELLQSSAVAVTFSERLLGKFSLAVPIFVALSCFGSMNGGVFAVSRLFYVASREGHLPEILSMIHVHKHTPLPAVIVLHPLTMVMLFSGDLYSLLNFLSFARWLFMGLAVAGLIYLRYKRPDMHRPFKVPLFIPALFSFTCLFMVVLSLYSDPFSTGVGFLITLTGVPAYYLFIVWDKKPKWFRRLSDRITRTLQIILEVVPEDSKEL
Test: co-IP; endogenous proteins from liver tissue of CCl4-treated (ALI) mice after MSC-Exo treatment; Pierce Co-Immunoprecipitation Kit; precipitation with anti-SLC7A11, anti-CD44 or anti-OTUB1, Western blot; 1% of the sample as input

B1: CD44 (protein, UniProt P15379 23-778)
chain: QIDLNVTCRYAGVFHVEKNGRYSISRTEAADLCQAFNSTLPTMDQMKLALSKGFETCRYGFIEGNVVIPRIHPNAICAANHTGVYILVTSNTSHYDTYCFNASAPPEEDCTSVTDLPNSFDGPVTITIVNRDGTRYSKKGEYRTHQEDIDASNIIDDDVSSGSTIEKSTPEGYILHTYLPTEQPTGDQDDSFFIRSTLATIASTVHSKSHAAAQKQNNWIWSWFGNSQSTTQTQEPTTSATTALMTTPETPPKRQEAQNWFSWLFQPSESKSHLHTTTKMPGTESNTNPTGWEPNEENEDETDTYPSFSGSGIDDDEDFISSTIATTPRVSARTEDNQDWTQWKPNHSNPEVLLQTTTRMADIDRISTSAHGENWTPEPQPPFNNHEYQDEEETPHATSTTPNSTAEAAATQQETWFQNGWQGKNPPTPSEDSHVTEGTTASAHNNHPSQRITTQSQEDVSWTDFFDPISHPMGQGHQTESKDTDSSHSTTLQPTAAPNTHLVEDLNRTGPLSVTTPQSHSQNFSTLHGEPEEDENYPTTSILPSSTKSSAKDARRGGSLPTDTTTSVEGYTFQYPDTMENGTLFPVTPAKTEVFGETEVTLATDSNVNVDGSLPGDRDSSKDSRGSSRTVTHGSELAGHSSANQDSGVTTTSGPMRRPQIPEWLIILASLLALALILAVCIAVNSRRRCGQKKKLVINGGNGTVEDRKPSELNGEASKSQEMVHLVNKEPSETPDQCMTADETRNLQSVDMKIGV
For B1, the binding was “binds”.
